Reference: PubChem BioAssay AID540276 (National Center for Advancing Translational Sciences (NCATS), 2011)
Hit rate of the full screen: of about 300,000 compounds, about 5,400 (1.8%) were called active. The inconclusive results got no clear call from the source; some entries with a clear call stand among them for comparison. Calls come from the whole dose curve; tested in HEK293 cells. Potencies of inconclusive entries are doubtful fits and often do not repeat.

assay: qHTS for inhibitors of binding or entry into cells for Marburg Virus; conditions: Marburg virus pseudotyped entry inhibition, cell reporter; activity change, negative = inhibition: at 37.8 µM (top of the series) unless noted
% is set by controls: 0 for no effect and ±100 for the full control effect; potency is the fitted concentration of half-maximal effect.

| SMILES | activity change, negative = inhibition | Potency |
| --- | --- | --- |
| Oc1ccc(Nc2nc(-c3ccc4ccccc4c3)cs2)cc1 | inactive: 1.52% |  |
| CC(OC(=O)c1ccc2c(c1)OCCO2)C(=O)c1ccccc1 (stereo unspecified) |  | inconclusive: 15.8 µM [inhibitor, single point] |
| N#CCC(=O)N/N=C\c1ccc(OC/C=C/c2ccccc2)cc1 | inactive: 13.1% [at 46.1 µM] |  |
| O=C(Nc1ccccc1)N1CCN(c2cccc(C(F)(F)F)c2)CC1 |  | inconclusive: 14.6 µM [inhibitor, partial curve, poor fit] |
| CCOc1ccc(N2CC(C(=O)N3CCc4ccccc43)CC2=O)cc1 (stereo unspecified) |  | inconclusive: 7.08 µM [activator, partial curve, poor fit] |
| O=C(O)CC[C@@H](C(=O)O)N1C(=O)c2ccccc2C1=O |  | inconclusive: 6.51 µM [activator, single point] |
| CCN1CCN(c2c(S(=O)(=O)c3ccc(OC)cc3)cnc3cc(OC)c(OC)cc23)CC1 |  | inconclusive: 2 µM [inhibitor, full curve, poor fit] |
| CCNC(=O)COc1cccc(C(=O)NCc2ccccc2)c1 |  | inconclusive: 5.62 µM [activator, single point] |
| Cc1c(C(=O)NCc2ccccc2Br)oc2c1-c1[nH]ncc1CC2 |  | inconclusive: 35.5 µM [inhibitor, partial curve, poor fit] |
| CCn1c(O)c(N=NC(=O)c2cccnc2)c2cc(Br)ccc21 |  | inconclusive: 3.66 µM [inhibitor, partial curve, poor fit] |
| Cc1ccc(C(=O)CSc2nnnn2Cc2ccccc2)cc1C |  | inconclusive: 12.6 µM [inhibitor, single point] |
| CCCCC(=O)NC(=S)Nc1cccc(Cl)c1N1CCCCC1 |  | inconclusive: 25.1 µM [inhibitor, single point] |
| CN(C)S(=O)(=O)c1cccc(NS(=O)(=O)c2ccc(Cl)s2)c1 | inactive: -16.2% |  |
| CC1CC(C)CN(Cc2nc(N)nc(Nc3ccccc3)n2)C1 (stereo unspecified) | inactive: 0.646% |  |
| CCn1c(C(=O)N2CCC(C(=O)NCCc3ccc(OC)cc3OC)CC2)cc2sccc21 |  | inconclusive: 35.5 µM [inhibitor, single point] |
| Cc1ccc(C(=O)NCc2ccco2)cc1S(=O)(=O)N1CCCC1 | inactive: 6.68% |  |
| CC1C=C2OC(N)=C(C#N)C(c3ccncc3)C2C(=O)N1CCN(C)C (stereo unspecified) | inactive: 0.897% |  |
| Cc1cc(/C=N/NC(=O)Cn2c3ccccc3c(=O)c3ccccc32)c(C)n1-c1ccccc1 |  | inconclusive: 8.91 µM [inhibitor, partial curve, poor fit] |
| COc1ccc(C(=O)NC(=S)Nc2ccc(Cl)c(C(=O)O)c2)cc1 | inactive: -4.3% |  |
| Cc1cccc(NC(=O)Cc2cccs2)n1 |  | inconclusive: 3.98 µM [activator, partial curve, poor fit] |
| CCCCC1(CO)C(=O)N(c2ccccc2)N(c2ccccc2)C1=O |  | inconclusive: 12.6 µM [activator, single point] |
| CC(=O)c1cccc(NC(=O)C2CCCC2)c1 | inactive: -23% |  |
| CCOc1ccc2ccccc2c1/C=N/NC(=O)c1cc(C)[nH]n1 | inactive: -18.3% [at 46.1 µM] |  |
| Cc1ccc(-c2nnc(-c3cccc4ccccc34)o2)cc1 | inactive: 4.68% |  |

| SMILES | activity change, negative = inhibition | Potency |
| --- | --- | --- |
| Cc1nc2ccccc2n1CCc1nc2c3ccccc3nc(SCC(=O)NCc3ccco3)n2n1 |  | active: 10.3 µM |
| Cc1ccc(N2CCN(C(=O)Nc3cccc([N+](=O)[O-])c3)CC2C)cc1 (stereo unspecified) |  | inconclusive: 35.5 µM [inhibitor, single point] |
| CCOC(=O)c1cc2c(nc1NC(=S)NCc1ccccc1)CCCC2 |  | inconclusive: 2.24 µM [activator, full curve] |
| O=C1c2ccccc2CN1c1ccccc1 |  | inconclusive: 35.5 µM [activator, partial curve, poor fit] |
| COc1ccc(OC)c(-n2c(-c3ccc(S(C)(=O)=O)cc3)cc(C=O)c2C)c1 |  | inconclusive: 5.62 µM [activator, single point] |
| CSc1nc(SCC(=O)NCc2ccco2)c2c3c(sc2n1)COC(C)(C)C3 |  | inconclusive: 4.61 µM [inhibitor, partial curve, poor fit] |
| CCOC(=O)c1cc(S(=O)(=O)N(C)Cc2ccccc2)cn1C |  | inconclusive: 3.98 µM [inhibitor, partial curve] |
| O=C(O)C(Cc1cnc[nH]1)NS(=O)(=O)c1ccc(Cl)cc1 (stereo unspecified) |  | inconclusive: 6.31 µM [activator, single point] |
| COc1cc2c(cc1NC(=O)c1cccnc1)CCCC2 | inactive: 18.1% |  |
| COc1cc2c(O)c3c(c(-c4ccc5c(c4)OCO5)c2cc1OC)C(=O)OC3 |  | active: 2.31 µM |
| Cc1ccc(-n2ncc3c(=O)n(CC(=O)N4CCN(C(=O)c5ccco5)CC4)cnc32)cc1 |  | inconclusive: 35.5 µM [inhibitor, single point] |
| Cc1cc(Cl)ccc1NC(=S)Nc1cccnc1 | inactive: 6.6% |  |
| CCCCCCCCCCOC(=O)Cn1c(COc2ccccc2OC)[n+](C)c2ccccc21 |  | active: 2.51 µM |
| CC1(C)Cc2c(cnn2-c2ccccc2)C(NC(=O)CCCN2CCCCC2=O)C1 (stereo unspecified) | inactive: -0.176% |  |
| Cc1ccc(S(=O)(=O)Nc2nc3c(s2)C(=O)CC(C)(C)C3)cc1 | inactive: 11.8% [at 46.1 µM] |  |
| CCc1nc2c(c(SC)nn2-c2ccccc2)c(N)c1C(=O)OC | inactive: -3.65% |  |
| CCC1(CC)NC(=O)N(Cc2nc3ccccc3s2)C1=O |  | inconclusive: 31.6 µM [inhibitor, single point] |
| O=C(Nc1ccnn1C1CCN(Cc2cccc(F)c2F)CC1)C1CCCC1 |  | inconclusive: 0.126 µM [inhibitor, full curve, poor fit] |
| CCCn1nc([N+](=O)[O-])c(C(C#N)c2nc3ccccc3o2)c(Cl)c1=O (stereo unspecified) |  | inconclusive: 35.5 µM [inhibitor, single point] |
| CCCCSc1ncnc2c1c(-c1ccccc1)cn2-c1cccc(F)c1 |  | inconclusive: 7.08 µM [inhibitor, partial curve, poor fit] |
| O=C(c1nsnc1-c1ccccc1O)N1CCCCC1 |  | inconclusive: 5.62 µM [activator, single point] |
| Cc1cccc(-n2c(=O)c3c4c(sc3n3cnnc23)CCCC4)c1 | inactive: 1.3% [at 46.1 µM] |  |
| CCN1CCN(c2c(S(=O)(=O)c3ccc(C)c(C)c3)cnc3cc(OC)c(OC)cc23)CC1 |  | inconclusive: 6.31 µM [inhibitor, partial curve, poor fit] |
| CCCCOC(=O)c1c(C)oc2ccc(NS(=O)(=O)c3ccc4c5c(cccc35)C(=O)N4)cc12 |  | inconclusive: 35.5 µM [inhibitor, partial curve, poor fit] |

| SMILES | activity change, negative = inhibition | Potency |
| --- | --- | --- |
| COc1ccc(NC(=O)CN(C)C(=O)Cc2ccc(S(=O)(=O)N3CCOCC3)s2)cc1 |  | inconclusive: 5.01 µM [activator, single point] |
| CCOc1cc(CNc2ccc(O)cc2)ccc1OCc1ccc(Cl)cc1 |  | inconclusive: 5.62 µM [activator, single point] |
| COc1ccc(CCC(=O)NNC(=O)Nc2ccc(C(C)C)cc2)cc1 | inactive: 4.72% [at 46.1 µM] |  |
| CN(CC(=O)Nc1ccc(S(=O)(=O)N2CCCC2)cc1)Cc1ccc(Cl)c(Cl)c1 |  | inconclusive: 35.5 µM [inhibitor, single point] |
| CC1CC(CCC(=O)NC(=S)Nc2ccc(Cl)cn2)C(=O)O1 (stereo unspecified) | inactive: 2.99% [at 46.1 µM] |  |
| O=C(CSc1ncc(-c2ccc(F)cc2)n1Cc1ccco1)Nc1ccc2c(c1)OCO2 |  | inconclusive: 35.5 µM [inhibitor, single point] |
| Cc1ccc(-c2cc(-c3ccccc3)[nH]c(=S)c2C#N)cc1 | inactive: 23.1% |  |
| N#Cc1c(NC(=O)CSc2ncn[nH]2)sc2c1CCCCC2 |  | active: 0.461 µM |
| CCC(C)(C)C(=O)Nc1cc([N+](=O)[O-])ccc1F |  | inconclusive: 1.58 µM [activator, partial curve, poor fit] |
| CCOC(=O)c1cc2c(=O)n3ccccc3nc2n(CCCOC)c1=NC(=O)C(C)Oc1ccccc1 (stereo unspecified) |  | inconclusive: 5.62 µM [inhibitor, single point] |
| CC(C)(C)c1ccc(C(=O)N/N=C2\C3CN4CCN(C3)CC2(c2ccccc2)C4)cc1 |  | inconclusive: 1.16 µM [activator, single point] |
| Cc1ccc(N(CC(=O)NCCc2ccccc2)S(=O)(=O)N(C)C)cc1 | inactive: -24.3% [at 46.1 µM] |  |
| COc1cccc(NC(=O)CNC(=O)Cn2c(C)cc3ccccc3c2=O)c1 |  | inconclusive: 35.5 µM [activator, single point] |
| CCN(CC)C(=O)c1cc2c(=O)c3cc(Cl)ccc3oc2nc1C | inactive: 27.8% [at 46.1 µM] |  |
| COc1cccc(NC(=O)c2nn(C)c(C(=O)Nc3cccc(OC)c3)c2[N+](=O)[O-])c1 |  | inconclusive: 0.316 µM [inhibitor, partial curve, poor fit] |
| CCCCC(=O)/C=C/n1c(=S)oc2ccccc21 |  | active: 17.8 µM |
| COc1ccc(-n2nnnc2SCC(=O)c2ccc(O)c(O)c2)cc1 | inactive: -11.4% |  |
| COc1ccc(NC(=O)C2CCCCC2)cc1S(=O)(=O)N1CCOCC1 |  | inconclusive: 6.31 µM [activator, full curve, poor fit] |
| O=C(CSc1nc2c(cnn2-c2ccc(F)cc2)c(=O)[nH]1)N1CCCc2ccccc21 |  | inconclusive: 29.1 µM [activator, single point] |
| COc1cccc(NC(=O)CSC2=NN3CCCC(=O)N=C3S2)c1 | inactive: -13.8% [at 46.1 µM] |  |
| CCc1cccc(NC(=O)Nc2csc3c2CCCC3)c1 |  | inconclusive: 6.31 µM [inhibitor, single point] |
| CCn1c(SCC(=O)Nc2nccs2)nnc1-c1ccc(S(=O)(=O)N2CCCCC2)cc1 |  | inactive |
| O=C(NCCCO)c1cc2c([nH]c3ccccc32)c(-c2ccc(F)cc2)n1 |  | inconclusive: 35.5 µM [inhibitor, single point] |

An excerpt of these results, as tab-separated lines:
SMILES	activity change, negative = inhibition	Potency
CN(CC(=O)Nc1ccc(S(=O)(=O)N2CCCC2)cc1)Cc1ccc(Cl)c(Cl)c1		inconclusive: 35.5 µM [inhibitor, single point]
CC1CC(CCC(=O)NC(=S)Nc2ccc(Cl)cn2)C(=O)O1 (stereo unspecified)	inactive: 2.99% [at 46.1 µM]	
O=C(CSc1ncc(-c2ccc(F)cc2)n1Cc1ccco1)Nc1ccc2c(c1)OCO2		inconclusive: 35.5 µM [inhibitor, single point]
Cc1ccc(-c2cc(-c3ccccc3)[nH]c(=S)c2C#N)cc1	inactive: 23.1%	
N#Cc1c(NC(=O)CSc2ncn[nH]2)sc2c1CCCCC2		active: 0.461 µM
CCC(C)(C)C(=O)Nc1cc([N+](=O)[O-])ccc1F		inconclusive: 1.58 µM [activator, partial curve, poor fit]
